Source: US4002740A (priority 1975, dated 1977)
Strings that start with PEPTIDE1 are HELM notation: dots part the residues, brackets hold end groups and non-standard residues.

Experiment: Boc solid-phase peptide synthesis; chloromethylated styrene divinyl benzene resin, 200-400 mesh, 1% divinyl benzene, 0.75 mM chloride per gram; dicyclohexyl carbodiimide
Settings: whole synthesis

PEPTIDE1{G.E.Q.R.K.D.V.Y.V.Q.L.Y.L}$$$$V2.0
final purity (method not given): 94%
